Experimental data as given in patent US20210292306A1, “NOVEL INDOLE DERIVATIVE AND ANTI-CANCER CONPOSITION CONTAINING SAME” (KOREA RESEARCH INSTITUTE OF BIOSCIENCE AND BIOTECHNOLOGY, priority 2016, published 2021).

Columns and labels:
Format in all cases: cell-based
MCF7/ADR = assay: Anti-proliferative activity in cancer cells showing multiple drug resistance (MTT assay); conditions: Homo sapiens, NCI/ADR-RES, 96 h
Procedure: (§1) HeLa cells (ATCC, USA), which are a human cervical cancer cell line, were dispensed into a 96-well plate at 2×10^3 cells/well, and the cells were treated with DMSO or the indole derivatives of the present invention, and then allowed to grow for 4 days. And then, MTT (3-(4,5-Dimethylthiazol-2-yl)-2,5-diphenyltetrazolium bromide) reagent was added to the wells at 10 μl/well. After 2 hours, the absorbance was measured at “OD 450” and statistical values were obtained using the plizm6 program. The data represent mean values of the results of two repeated assays (Table 1). Specifically, K562 and MCF7 (Bio Evaluation Center, Korea Research Institute of Bioscience and Biotechnology, Korea), and K562/ADR and MCF7/ADR (Bio Evaluation Center, Korea Research Institute of Bioscience and Biotechnology, Korea), which are multiple drug-resistant cell lines of the above mentioned cell lines, respectively, were cultured on a microtiter plate at 1-3×10^3 cells/well.

K562 = assay: Anti-proliferative activity, multiple drug resistance study (MTT assay), parent line; conditions: Homo sapiens, K562, 96 h
Procedure: as §1

MCF7 = assay: as above; conditions: Homo sapiens, MCF7, 96 h
Procedure: as §1

## COc1cc2c(c(OC)c1OC)-c1ccc(OC)c(=O)cc1[C@@H](NC(C)=O)CC2 [colchicine, reference compound]
MCF7/ADR
  IC50: 0.0925 µM
K562
  IC50: 0.0159 µM
MCF7
  IC50: 0.00271 µM
